From PubChem BioAssay AID493027 (The Scripps Research Institute Molecular Screening Center, 2011) come the findings set out here.

The chains behind the UniProt entries cited, without tags or fusion partners. Where a name states a change or a piece, a line headed by the entry shows the natural chain unless it says otherwise.
UniProt O60240: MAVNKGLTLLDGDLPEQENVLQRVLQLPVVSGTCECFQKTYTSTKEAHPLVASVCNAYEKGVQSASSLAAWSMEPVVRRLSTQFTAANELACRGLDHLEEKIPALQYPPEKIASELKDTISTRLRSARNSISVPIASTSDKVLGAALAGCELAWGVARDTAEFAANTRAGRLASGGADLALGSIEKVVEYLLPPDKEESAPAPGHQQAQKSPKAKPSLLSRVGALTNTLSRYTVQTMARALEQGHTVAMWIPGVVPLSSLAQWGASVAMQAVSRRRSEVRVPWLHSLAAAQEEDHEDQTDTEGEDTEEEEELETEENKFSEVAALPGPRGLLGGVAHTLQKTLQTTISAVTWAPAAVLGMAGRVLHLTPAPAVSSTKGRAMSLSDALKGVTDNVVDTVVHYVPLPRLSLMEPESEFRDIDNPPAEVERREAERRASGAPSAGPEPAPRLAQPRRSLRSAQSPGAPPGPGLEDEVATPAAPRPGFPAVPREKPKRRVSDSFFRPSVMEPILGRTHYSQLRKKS
UniProt Q8WTS1: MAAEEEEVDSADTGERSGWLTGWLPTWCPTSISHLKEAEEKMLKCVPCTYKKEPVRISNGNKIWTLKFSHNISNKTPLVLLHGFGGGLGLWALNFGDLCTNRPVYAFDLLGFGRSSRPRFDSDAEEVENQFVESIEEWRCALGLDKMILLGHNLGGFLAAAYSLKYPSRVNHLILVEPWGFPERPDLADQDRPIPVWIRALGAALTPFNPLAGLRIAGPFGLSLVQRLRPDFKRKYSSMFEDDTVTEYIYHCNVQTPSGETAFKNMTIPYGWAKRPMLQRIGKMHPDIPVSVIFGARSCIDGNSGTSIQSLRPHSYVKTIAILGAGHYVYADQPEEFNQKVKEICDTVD

Where “and” joins values, the source holds several entries; their conditions need not be identical. Equal values may be shown once. The whole screen tested about 2,000 compounds, of which about 45 (2%) were called active.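 How the source made its calls: active means inhibition above the screen-wide mean inhibition plus 3 SD (cut at about 44% in these data); inactive means the rest.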 The list shows a part of the results. Where a SMILES comes first, the peptide text is derived from it. The star is where a group is joined. Boc = CC(C)(C)OC(=O)*

The target of this test is Perilipin-1 (Homo sapiens) + 1-acylglycerol-3-phosphate O-acyltransferase ABHD5 (Homo sapiens) (UniProt O60240+Q8WTS1). Put plainly: ABHD5-PLIN1 interaction inhibitors, pilot screen, cell lysate, split luciferase complementation, luminescence, NIH validation set (AID 493027).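 Further: 0% = DMSO wells with the 100% control not disclosed.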 The note with it: split G. princeps luciferase complementation, 4 h; at 7.9 µM, hits give high values.
With `Cc1cccc(-n2c(Cc3ccccc3)n[nH]c2=S)c1`, the inhibition is inactive: -9.48%.

As for `CN1CCN(C2=Nc3cc(Cl)ccc3Nc3ccccc32)CC1`, the inhibition was inactive: -1.98%.

As to `CCn1c(/C=C/c2ccccc2)nc2ccccc2c1=O`, the inhibition was inactive: 7.31%.

As for `CCn1c2ccccc2c2cc(CC(N)=O)ccc21`, the inhibition is inactive: 1.29%.

As for `N#C/C(C(N)=O)=c1/ccc2c(c1)N1C3=C(CCCC3)CC3CCCCC31N=2` (stereo not drawn), the inhibition is inactive: 6.71%.

`O=C(Nc1nc2ccccc2s1)c1ccc(F)cc1`: the inhibition was inactive: -5.53%.

In the case of `Oc1ccc(Cl)cc1Cc1cc(Cl)ccc1O`, the inhibition is inactive: 0.63%.

In the case of `COc1ccc(OC(C)C(=O)Nc2ccccc2F)cc1` (stereo not drawn), the inhibition is inactive: -1.13%.

For `COc1ccc(/C=C/C(=O)NC(=S)NN2CCCCC2c2cccnc2)cc1` (stereo not drawn), the inhibition was inactive: 3.85%.

For `CC(C)COCC(CN(Cc1ccccc1)c1ccccc1)N1CCCC1` (stereo not drawn), the inhibition is inactive: -7.7%.

For the compound `COc1cc2c(cc1OC)C(c1ccc(-c3cc(Cl)ccc3Cl)o1)=NCC2`, the inhibition is inactive: 6.19%.

As for `CC(C)OC(=O)C1C2C=CC3(CN(CC4CCCO4)C(=O)C13)O2` (stereo not drawn), the inhibition was inactive: 10.8%.

On to `CC(CCCC(C)(C)O)NC(=O)c1ccc(OC2CCN(C(=O)C3CC3)CC2)cc1` (stereo not drawn), for which the inhibition is inactive: -7.27%.

As to `CC(=O)c1cccc2c(O)c(C3=Nc4ccccc4C3=O)[nH]c12`, the inhibition is inactive: 13%.

Regarding `Cc1ccc(/C=N/Nc2nc(C(C)(C)C)cs2)o1`, the inhibition was inactive: -12%.

`Cc1ccc2[nH]c3c(c2c1)CN(C(=O)CN1CCSCC1)CC3`: the inhibition is inactive: 14.8%.

For `COc1cc(OC)cc(C(C)=O)c1`, the inhibition is inactive: -7.11%.

For the compound `Cc1ccc(-n2ncc3c(Nc4cccc(C(=O)O)c4)ncnc32)cc1`, the inhibition is inactive: 9.15%.

Take `NCCOc1ccccc1OCCN`: the inhibition is inactive: -1.62%.

Take `CCCCOC(=O)c1ccc(N)cc1`: the inhibition was inactive: 4.95%.

Turning to `O=C(CS(=O)(=O)Cc1ccccc1)NCc1ccc2c(c1)OCO2`, the inhibition is inactive: -12.5%.

Consider `O=C(Nc1cccc(-c2nc3ncccc3o2)c1)c1ccccc1`, for which the inhibition was inactive: 2.01%.

With `O=C(NCCCCCc1nc2ccccc2[nH]1)c1ccccc1Cl`, the inhibition is inactive: 2.81%.

For `Cc1ccc2ncnc(NCCCCCC(=O)O)c2c1`, the inhibition is inactive: 3.36%.

For the compound `CCOc1ccc2ccccc2c1CNc1nnnn1C`, the inhibition is inactive: -8.53%.

As for `COc1ccc(OC(C)C(=O)Nc2ccc([N+](=O)[O-])cc2)cc1` (stereo not drawn), the inhibition was inactive: -4.29%.

On to `Cc1ccsc1C1NC(=O)c2ccccc2N1` (stereo not drawn), for which the inhibition is inactive: -1.07%.

Take `COc1ccc2oc(=O)c(C(=O)N3CCN(c4ccccc4)CC3)cc2c1`: the inhibition is inactive: 9.05%.

With `O=C(c1ccco1)N(CCC(c1ccccc1)c1ccco1)Cc1ccco1` (stereo not drawn), the inhibition is active: 56.6%.

In the case of `CC(C)Oc1ccc(C(CC(=O)O)c2ccc(F)cc2)cc1` (stereo not drawn), the inhibition is inactive: -5.29%.

Turning to `O=C(O)CCSCCC(=O)O`, the inhibition was inactive: -4.69%.

With `O=C(c1cc2cc(Br)ccc2o1)N1CCCCC1`, the inhibition is inactive: -9.79%.

`CO[C@@]1(NC(=O)Cc2cccs2)C(=O)N2C(C(=O)O)=C(COC(N)=O)CS[C@@H]21`: the inhibition is inactive: 6.03%.

Turning to `CC(C)OC(=O)C1C(=O)CC(C)(O)C(C(=O)OC(C)C)C1c1cccc(O)c1` (stereo not drawn), the inhibition is inactive: -0.5%.

On to `COc1ccc(CN(CCC(c2ccccc2)c2ccc(OC(C)C)cc2)C(=O)CCl)cc1OC` (stereo not drawn), for which the inhibition was active: 64.4%.

Turning to `COc1ccc(CCN2CNc3c(c(=O)n(C)c(=O)n3C)C2)cc1OC`, the inhibition is inactive: -10%.

`CC(CCc1ccccc1)NC(=O)/C=C/c1ccccc1` (stereo not drawn): the inhibition is inactive: 2.76%.

Turning to `COc1cc(Cc2cnc(N)nc2N)cc(OC)c1OC`, the inhibition was inactive: -6.33% and inactive: -2.25%.

`CC[N+]1(C)CC2CCC(C)(C1)C2(C)C` (stereo not drawn): the inhibition is inactive: -1.14%.

`CC(C)(C)OC(=O)N1CCCC1C(=O)NC(Cc1ccccc1)C(=O)O` (stereo not drawn) (Boc-Pro-Phe-OH; configuration not given here): the inhibition is inactive: -7.73%.

As to `COCCn1c(SCCOc2ccccc2)nc2ccccc2c1=O`, the inhibition is inactive: -7.89%.

As to `COC(=O)c1cc(OC)c(OC)cc1NC(=O)Nc1ccc(OC)cc1OC`, the inhibition is inactive: 5.92%.

Turning to `COc1ccc(CN2CCC(=O)NC2=O)cc1`, the inhibition was inactive: -1.55%.

Regarding `COc1cc(C(=O)OCCn2c(=O)c3c(ncn3CCN(C)C)n(C)c2=O)cc(OC)c1OC`, the inhibition is inactive: -2.64%.

Turning to `COc1ccc(-c2c[n+](CC(=O)OC3CC(C)CCC3C(C)C)c3n2CCC3)cc1` (stereo not drawn), the inhibition was inactive: 12.8%.

Turning to `O=C(COc1ccccc1)N1CCN(c2ccccc2)CC1`, the inhibition was inactive: -2.07%.

In the case of `CN(C)CCC=C1c2ccccc2CCc2ccccc21`, the inhibition is inactive: -12%.

Take `Cc1ccnc2c1NC(=O)c1cccnc1N2C1CC1`: the inhibition is inactive: -8.35%.

Take `C#C[C@]1(O)CC[C@H]2[C@@H]3CCc4cc(OC5CCCC5)ccc4[C@H]3CC[C@@]21C`: the inhibition is inactive: -7.44%.

As for `Cn1c(=O)c2[nH]cnc2n(C)c1=O`, the inhibition is inactive: 3.05%.

As for `CC(C)COCC1CC2(CC(C)(c3csc(N)n3)OC2=O)C(=O)O1` (stereo not drawn), the inhibition is inactive: -11.4%.

With `COc1c(C)cc(C(=O)C2CCCN(Cc3ccc(Oc4ncccn4)cc3)C2)cc1C` (stereo not drawn), the inhibition is inactive: -2.41%.

Regarding `COc1ccc(CNCCC(c2ccc(F)cc2)c2ccc(OC(C)C)cc2)cc1OC` (stereo not drawn), the inhibition was inactive: -6.56%.

Regarding `CCOC(=O)C1C2C=CC3(CN(c4ccc(Cl)c(F)c4)C(=O)C13)O2` (stereo not drawn), the inhibition is inactive: -9.58%.

For `CCc1ccc2oc(=O)cc(CN3CCC(C)CC3)c2c1`, the inhibition is inactive: -3.08%.

On to `CCOC(=O)C1=C(N)Oc2c(oc(CO)cc2=O)C1c1ccc(F)c(F)c1` (stereo not drawn), for which the inhibition is inactive: -2.04%.

Take `C[C@]12CC[C@H]3C(=CCc4cc(O)ccc43)[C@@H]1CCC2=O`: the inhibition was inactive: 5.17%.

As to `Cc1ncc([N+](=O)[O-])n1CC(O)CCl` (stereo not drawn), the inhibition was inactive: 1.63%.

Regarding `CN1C(C(=O)Nc2ccccn2)=C(O)c2sccc2S1(=O)=O`, the inhibition was inactive: 2.28%.

Take `COc1ccc(C2C(=O)c3ccccc3C2=O)cc1`: the inhibition was inactive: -2.92%.

Turning to `CCOC(=O)c1c(C)oc2cc(Br)c(OC(C)C(=O)OCC)cc12` (stereo not drawn), the inhibition was inactive: -5%.

Consider `Cc1cccc(C)c1NC(=O)C1CCCCN1C` (stereo not drawn), for which the inhibition is inactive: -13.7%.

On to `Nc1ccc(S(N)(=O)=O)cc1N`, for which the inhibition was inactive: 1.88%.

Consider `CC(C)OC(=O)CC1C(=O)NCCN1C(=S)NC(=O)c1ccccc1Cl` (stereo not drawn), for which the inhibition is inactive: 1.72%.

With `CC(C)Cc1ccc(C(C)C(=O)Nc2ccc(O)cc2)cc1` (stereo not drawn), the inhibition is inactive: 4.08%.

With `CC(=O)NCCCCCCNC(C)=O`, the inhibition is inactive: 3.05%.

Consider `O=C(CC(C(=O)O)c1c[nH]c2ccccc12)c1ccccc1` (stereo not drawn), for which the inhibition was inactive: -2.61%.

For the compound `Cc1oc2cc(O)ccc2c(=O)c1Oc1ccccc1Br`, the inhibition is inactive: 15.1%.

As for `Cc1nc(C)c(C)nc1C`, the inhibition is inactive: -2.64%.

For the compound `COc1cc2cc(C(=O)O)[nH]c2c(OC)c1OC`, the inhibition is inactive: -4.8%.

Consider `CC(=O)N(C(C)=O)c1nc2nc(C)cc(C)n2n1`, for which the inhibition was inactive: -0.49%.

On to `Nc1nnc(CSCc2ccc(Cl)cc2Cl)s1`, for which the inhibition was inactive: -0.56%.

On to `O=C(/C=C/c1ccc2c(c1)OCCCO2)c1ccc2ccccc2c1O`, for which the inhibition was inactive: 17.8%.

As for `C=CCOC(=O)C1=C(C)NC(=O)NC1/C=C/c1ccccc1OC` (stereo not drawn), the inhibition is inactive: -5.03%.

As to `CC(=O)/C=C/c1ccc(C)o1`, the inhibition is inactive: 18.2%.

Turning to `CC(=O)O[C@]1(C(C)=O)CC[C@H]2[C@@H]3C=C(C)C4=CC(=O)CC[C@]4(C)[C@H]3CC[C@@]21C`, the inhibition was inactive: 0.09%.

For the compound `COc1ccc2c(c1)c(=O)oc1cc3occ(C(C)(C)C)c3cc12`, the inhibition was inactive: -8.22%.

As for `COc1ccccc1CCn1cnc2c3cc(C)ccc3n(C)c2c1=O`, the inhibition is inactive: 11.8%.

Regarding `C(=C/c1nccc2c1[nH]c1ccccc12)/c1ccc2c(c1)OCO2`, the inhibition is inactive: 4.08%.

Regarding `OCC1CCN(Cc2cn(Cc3ccccc3)nc2-c2cc3ccccc3o2)CC1`, the inhibition is inactive: 2.57%.

On to `CC1(C)Cc2ccccc2-c2n[nH]c(=S)n21`, for which the inhibition is inactive: -17.3%.

Consider `CC1CCCC(C)N1NC(=O)c1ccc(Cl)c(S(N)(=O)=O)c1` (stereo not drawn), for which the inhibition is inactive: -6.82%.

With `Nc1nnc(-c2cccc(Cl)c2Cl)c(N)n1`, the inhibition is inactive: -7.35%.

For `CN(C)[C@@H]1C(=O)C(C(=O)NCN2CCCC2)=C(O)[C@@]2(O)C(=O)C3=C(O)c4c(O)cccc4[C@@](C)(O)C3CC12` (stereo partly drawn), the inhibition was inactive: 4.91%.

Take `O=c1c(-c2ccccc2)c(O)c2cccc3c2n1CCC3`: the inhibition was inactive: 0.02%.

Regarding `COc1ccc(C2=NOC(COc3ccc4c(C)cc(=O)oc4c3)C2)c(OC)c1` (stereo not drawn), the inhibition was inactive: 29.8%.

For the compound `COc1ccc(C2C3CCCCC3(O)CCN2C(=O)c2cccs2)cc1` (stereo not drawn), the inhibition was inactive: -2.09%.

With `CCCC(=O)Nc1ccc(OCC(O)CNC(C)C)c(C(C)=O)c1` (stereo not drawn), the inhibition was inactive: -4.88%.

For `CCn1c(C)cc2c(c1=O)C(c1ccccc1)C(C(=O)OC)=C(N)O2` (stereo not drawn), the inhibition is inactive: -2.29%.

In the case of `NC(=O)c1c(-c2ccccc2)oc2ccc(O)cc12`, the inhibition is inactive: -4.07%.

In the case of `CC(=O)OCC(=O)[C@@]12OC3(CCCC3)O[C@@H]1C[C@H]1[C@@H]3CCC4=CC(=O)C=C[C@]4(C)[C@@]3(F)[C@@H](O)C[C@@]12C`, the inhibition is inactive: 12.8%.

Regarding `CS(=O)(=O)c1cccc(C(=O)Oc2ccccc2)c1`, the inhibition was inactive: 1.21%.

As to `Cc1cnc(N)c2c(=O)oc3ccccc3c12`, the inhibition was inactive: -4.88%.

Regarding `CCC(=O)Oc1ccc(C(=O)Nc2ccc([N+](=O)[O-])cc2)cc1`, the inhibition was inactive: 7.03%.

Turning to `COCCN(CCOC)Cc1c(C)[nH]c2c(C)c(C)ccc2c1=O`, the inhibition is inactive: 6.03%.

`Cc1[nH]c2ccccc2c1C(=O)C(=O)NCc1ccco1`: the inhibition was inactive: -8.34%.

For `Cc1ccc(S(=O)(=O)NC(C(=O)Oc2cc3oc(=O)cc(C)c3cc2Cl)C(C)C)cc1` (stereo not drawn), the inhibition was inactive: 27.4%.

As for `CCOc1ccc2nc(N/C(N)=N/S(C)(=O)=O)nc(C)c2c1`, the inhibition was inactive: 0.73%.
